Experimental findings from article PMC9515611 are described below.

Sequences of proteins named here, by UniProt entry; tags and fusion partners are left off. Residues count along the entry.
UniProt P11021, residues 19-654: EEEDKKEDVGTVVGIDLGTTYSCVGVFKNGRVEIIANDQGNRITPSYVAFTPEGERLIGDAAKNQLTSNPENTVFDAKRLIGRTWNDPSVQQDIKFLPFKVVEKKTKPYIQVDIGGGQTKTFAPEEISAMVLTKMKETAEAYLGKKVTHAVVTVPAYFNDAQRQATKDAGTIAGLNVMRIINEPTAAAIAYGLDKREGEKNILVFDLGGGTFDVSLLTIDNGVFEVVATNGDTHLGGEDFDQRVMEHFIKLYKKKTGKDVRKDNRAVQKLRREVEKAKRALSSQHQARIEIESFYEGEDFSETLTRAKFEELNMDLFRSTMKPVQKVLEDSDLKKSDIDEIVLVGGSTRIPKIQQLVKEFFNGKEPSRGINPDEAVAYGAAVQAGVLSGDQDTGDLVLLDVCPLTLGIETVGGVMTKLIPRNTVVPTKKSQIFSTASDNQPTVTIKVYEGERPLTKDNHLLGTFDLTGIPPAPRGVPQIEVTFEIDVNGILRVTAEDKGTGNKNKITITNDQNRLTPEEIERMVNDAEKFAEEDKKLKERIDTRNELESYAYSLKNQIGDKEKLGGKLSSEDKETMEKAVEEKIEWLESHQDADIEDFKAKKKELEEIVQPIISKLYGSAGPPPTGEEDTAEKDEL

In assay [1] the target is T1, Flag-MANF (mesencephalic astrocyte-derived neurotrophic factor), expressed in HEK-293T (human) (UniProt P55145).
T1 sequence: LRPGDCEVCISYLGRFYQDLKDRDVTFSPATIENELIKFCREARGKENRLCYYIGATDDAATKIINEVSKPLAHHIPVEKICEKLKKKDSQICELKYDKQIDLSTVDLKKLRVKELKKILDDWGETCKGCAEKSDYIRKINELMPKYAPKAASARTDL
The assay can be described thus: co-IP; HEK-293T transfected with GRP78-HA, Flag-MANF and an increasing amount of DLC1-Flag.

Assay [2] has as its target T2, DLC1-Flag (deleted in liver cancer-1), expressed in HEK-293T (human) (UniProt Q96QB1).
T2 sequence: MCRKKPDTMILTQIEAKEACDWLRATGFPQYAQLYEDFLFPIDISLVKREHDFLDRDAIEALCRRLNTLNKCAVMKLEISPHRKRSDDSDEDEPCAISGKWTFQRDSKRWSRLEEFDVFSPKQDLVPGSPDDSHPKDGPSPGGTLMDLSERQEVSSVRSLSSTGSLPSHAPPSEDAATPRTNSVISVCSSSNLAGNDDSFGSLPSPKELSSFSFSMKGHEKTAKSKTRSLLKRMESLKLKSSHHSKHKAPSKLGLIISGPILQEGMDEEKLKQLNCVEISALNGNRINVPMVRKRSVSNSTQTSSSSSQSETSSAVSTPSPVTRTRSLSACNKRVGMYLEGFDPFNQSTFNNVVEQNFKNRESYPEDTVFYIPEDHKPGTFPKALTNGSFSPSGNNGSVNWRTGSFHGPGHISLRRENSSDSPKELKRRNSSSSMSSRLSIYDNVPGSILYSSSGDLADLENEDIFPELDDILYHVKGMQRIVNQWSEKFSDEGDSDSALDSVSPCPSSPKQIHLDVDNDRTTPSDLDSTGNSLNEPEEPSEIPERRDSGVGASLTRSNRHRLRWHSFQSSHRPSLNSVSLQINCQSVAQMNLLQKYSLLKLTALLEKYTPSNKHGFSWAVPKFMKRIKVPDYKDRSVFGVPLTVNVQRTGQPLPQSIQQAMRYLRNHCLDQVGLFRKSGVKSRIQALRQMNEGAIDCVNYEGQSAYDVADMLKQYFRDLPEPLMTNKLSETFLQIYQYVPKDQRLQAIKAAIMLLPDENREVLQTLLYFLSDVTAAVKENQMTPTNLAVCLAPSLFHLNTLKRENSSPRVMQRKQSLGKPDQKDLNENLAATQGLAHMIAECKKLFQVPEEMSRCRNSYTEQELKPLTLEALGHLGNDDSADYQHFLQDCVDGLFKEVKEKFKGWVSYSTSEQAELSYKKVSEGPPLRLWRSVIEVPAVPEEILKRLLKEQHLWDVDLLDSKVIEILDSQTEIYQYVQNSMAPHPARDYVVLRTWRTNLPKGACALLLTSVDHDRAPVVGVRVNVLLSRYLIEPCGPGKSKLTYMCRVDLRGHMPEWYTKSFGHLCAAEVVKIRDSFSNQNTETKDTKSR
The experiment in a line: co-IP; HEK-293T transfected with GRP78-HA and DLC1-Flag or Flag-MANF; whole cell lysate, IP with antibody against Flag, immunoblot with antibody HA.

Assay [3] concerns the target T1, Flag-MANF (mesencephalic astrocyte-derived neurotrophic factor), expressed in HEK-293T (human). The description is as above.
The target of assay [4] is T3, DLC1-Flag (deleted in liver cancer-1), exogenous in SW1116 (human) (UniProt Q96QB1).
T3 sequence: T2 sequence
The experiment in a line: co-IP; SW1116 cells with exogenous DLC1-Flag or Flag-MANF; endogenous GRP78 detected.

In assay [5] the target is T4, Flag-MANF (mesencephalic astrocyte-derived neurotrophic factor), exogenous in SW1116 (human) (UniProt P55145).
T4 sequence: T1 sequence
The assay is described as above.

Assay [6] deals with T5, HA-DLC1 (deleted in liver cancer-1) (human) (UniProt Q96QB1).
T5 sequence: T2 sequence
The experiment in a line: co-IP; HEK-293T; Flag-tagged full-length GRP78 or truncations with HA-DLC1.

Results are given in words; binding and its absence hold for the method and conditions named. In cells and extracts the contact can be indirect. Some binding calls cover weakened binding; strength is not graded here. Where a sequence is shown, tags or fusion partners need not be part of it.

Consider “GRP78-HA (glucose-regulated protein 78 kDa) (from UniProt P11021 19-654)”, for which the binding entry in assay [1], in assay [2] and in assay [3] was “binds” throughout.

With “glucose-regulated protein 78 kDa (GRP78), endogenous in SW1116 (from UniProt P11021 19-654)”, the binding result in assay [4] and in assay [5] was “binds” throughout.

On to “GRP78 full length, tagged with Flag (from UniProt P11021 19-654)”, for which the binding entry in assay [6] is given as “binds”.
